{"source": "the supplement of paper PMC7411640", "system": "MDA-MB-468", "assay": "phospho-S6 immunofluorescence (DAPI-normalised), per-plate z-score; higher = higher phospho-S6 signal (less pathway suppression)", "conditions": "24 h", "description": "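GPCR-targeted compound library (MedChemExpress HY-L006) tested on MDA-MB-468 PTEN-null TNBC cells in 384-well plates at 0.1, 1 or 10 uM, combined with vehicle, GDC0941 450 nM or lapatinib 1 uM, for 24 h. Phospho-S6 (S240/244) immunofluorescence normalised to DAPI and expressed as a per-plate z-score; values are the mean of biological triplicates.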", "key": {"[1]": {"conditions": "compound 0.1 µM, co-treatment: GDC0941 450 nM"}, "[2]": {"conditions": "compound 0.1 µM, co-treatment: lapatinib 1 uM"}, "[3]": {"conditions": "compound 0.1 µM, co-treatment: vehicle"}, "[4]": {"conditions": "compound 1 µM, co-treatment: GDC0941 450 nM"}, "[5]": {"conditions": "compound 1 µM, co-treatment: lapatinib 1 uM"}, "[6]": {"conditions": "compound 1 µM, co-treatment: vehicle"}, "[7]": {"conditions": "compound 10 µM, co-treatment: GDC0941 450 nM"}, "[8]": {"conditions": "compound 10 µM, co-treatment: lapatinib 1 uM"}, "[9]": {"conditions": "compound 10 µM, co-treatment: vehicle"}}, "note": "This is one part of the list. Single values are uncertain here, since repeats match poorly."}
{"smiles": "CCN(CC)C(=O)c1ccc(C2=CC3(CCNCC3)Oc3cccc(O)c32)cc1", "values": [{"measurement": "phospho-S6 immunofluorescence (z-score)", "setting": "[1]", "result": 0.01}, {"measurement": "phospho-S6 immunofluorescence (z-score)", "setting": "[2]", "result": -0.48}, {"measurement": "phospho-S6 immunofluorescence (z-score)", "setting": "[3]", "result": -0.63}, {"measurement": "phospho-S6 immunofluorescence (z-score)", "setting": "[4]", "result": 0.19}, {"measurement": "phospho-S6 immunofluorescence (z-score)", "setting": "[5]", "result": -1.39}, {"measurement": "phospho-S6 immunofluorescence (z-score)", "setting": "[6]", "result": -1.39}, {"measurement": "phospho-S6 immunofluorescence (z-score)", "setting": "[7]", "result": 0.32}, {"measurement": "phospho-S6 immunofluorescence (z-score)", "setting": "[8]", "result": -0.78}, {"measurement": "phospho-S6 immunofluorescence (z-score)", "setting": "[9]", "result": 0.88}]}
{"smiles": "CC(C)C[C@H](NC(=O)[C@H](Cc1ccccc1)NC(=O)CNC(=O)[C@@H](C)NC(=O)[C@@H](N)Cc1ccc(O)cc1)C(=O)O", "note": "[[D-Ala2]leucine-enkephalin]", "values": [{"measurement": "phospho-S6 immunofluorescence (z-score)", "setting": "[1]", "result": 1.7}, {"measurement": "phospho-S6 immunofluorescence (z-score)", "setting": "[2]", "result": -0.37}, {"measurement": "phospho-S6 immunofluorescence (z-score)", "setting": "[3]", "result": 1.67}, {"measurement": "phospho-S6 immunofluorescence (z-score)", "setting": "[4]", "result": 0.16}, {"measurement": "phospho-S6 immunofluorescence (z-score)", "setting": "[5]", "result": 0.5}, {"measurement": "phospho-S6 immunofluorescence (z-score)", "setting": "[6]", "result": 0.38}, {"measurement": "phospho-S6 immunofluorescence (z-score)", "setting": "[7]", "result": -0.29}, {"measurement": "phospho-S6 immunofluorescence (z-score)", "setting": "[8]", "result": 0.01}, {"measurement": "phospho-S6 immunofluorescence (z-score)", "setting": "[9]", "result": 1.34}]}
{"smiles": "C[N@+]1(CC2CC2)CC[C@]23c4c5ccc(O)c4O[C@H]2C(=O)CC[C@@]3(O)[C@H]1C5", "note": "[Methylnaltrexone (Bromide)]", "values": [{"measurement": "phospho-S6 immunofluorescence (z-score)", "setting": "[1]", "result": -0.74}, {"measurement": "phospho-S6 immunofluorescence (z-score)", "setting": "[2]", "result": -0.38}, {"measurement": "phospho-S6 immunofluorescence (z-score)", "setting": "[3]", "result": -1.12}, {"measurement": "phospho-S6 immunofluorescence (z-score)", "setting": "[4]", "result": -0.46}, {"measurement": "phospho-S6 immunofluorescence (z-score)", "setting": "[5]", "result": -0.7}, {"measurement": "phospho-S6 immunofluorescence (z-score)", "setting": "[6]", "result": -1.11}, {"measurement": "phospho-S6 immunofluorescence (z-score)", "setting": "[7]", "result": 0.46}, {"measurement": "phospho-S6 immunofluorescence (z-score)", "setting": "[8]", "result": 0.44}, {"measurement": "phospho-S6 immunofluorescence (z-score)", "setting": "[9]", "result": -0.66}]}
{"smiles": "COc1ccc2c(c1OC)CN1CCc3cc4c(cc3C1C2)OCO4", "note": "(stereo unspecified) [Tetrahydroberberine]", "values": [{"measurement": "phospho-S6 immunofluorescence (z-score)", "setting": "[1]", "result": 0.03}, {"measurement": "phospho-S6 immunofluorescence (z-score)", "setting": "[2]", "result": -0.11}, {"measurement": "phospho-S6 immunofluorescence (z-score)", "setting": "[3]", "result": -0.32}, {"measurement": "phospho-S6 immunofluorescence (z-score)", "setting": "[4]", "result": 1.13}, {"measurement": "phospho-S6 immunofluorescence (z-score)", "setting": "[5]", "result": -0.03}, {"measurement": "phospho-S6 immunofluorescence (z-score)", "setting": "[6]", "result": -0.6}, {"measurement": "phospho-S6 immunofluorescence (z-score)", "setting": "[7]", "result": -0.04}, {"measurement": "phospho-S6 immunofluorescence (z-score)", "setting": "[8]", "result": -1.09}, {"measurement": "phospho-S6 immunofluorescence (z-score)", "setting": "[9]", "result": -0.52}]}
